Measured values reported in patent US10112977B2, “Peptide for inducing multinucleation in cells, and use therefor” (Toagosei Co., Ltd., priority 2014, dated 2018).
Some entries share one result that the patent states for a list of compounds. Peptide text beside a SMILES is read from it.

System: HeLa S3 cells
Experiment: Evaluation test 2 of multinucleation-inducing activity (multinucleation induction ratio)
Type: cell-based, human
Conditions: 50 μM peptide, 4 days, individual test (1 field of vision)
Experimental: The multinucleation induction ratio was determined for the multinucleation-inducing synthetic peptides (sample 1 and sample 2) obtained in Example 1. The same HeLa S3 cells as in Example 2 were used for the sample cells. The evaluation test is described in the following.
HeLa S3 cells were seeded into each well of an 8-chamber (well) cell culture slide (also referred to as a chamber) to provide approximately 0.5×10^3 cells per well and were cultured overnight in an incubator under conditions of 5% CO2 and 37° C. […]
After completion of the culture period, the cells in the test groups were subjected to cytoimmunostaining of a cytoplasm marker (calreticulin) nuclear staining as in Example 2. After the execution of the cytoimmunostaining and nuclear staining, the cells each test group were subjected to fluorescence observation using a confocal laser microscope and, for the cells observed in 1 field of vision, the total number of cells and the number of cells presenting two or more nuclei (number of multinucleated cells) were counted. The multinucleation induction ratio (proportion (%) for the number of cells having two or more nuclei with reference to the total number of cells observed in 1 field of vision in the microscopic observation) was calculated using the following formula: multinucleation induction ratio (%)=(number of cells having two or more nuclei)÷(total number of cells)×100. […]

SMILES	multinucleation induction ratio (%)
CC(C)C[C@H](NC(=O)[C@@H](NC(=O)[C@H](CCCNC(=N)N)NC(=O)[C@H](CCCCN)NC(=O)[C@@H](N)CCCCN)[C@@H](C)O)C(=O)N[C@@H](CCCNC(=N)N)C(=O)N[C@@H](CCCCN)C(=O)N[C@@H](CC(N)=O)C(=O)N[C@@H](CC(=O)O)C(=O)N[C@@H](CCCNC(=N)N)C(=O)N[C@@H](CCCCN)C(=O)N[C@@H](CCCCN)C(=O)N[C@@H](CCCNC(=N)N)C(=O)NCC(=O)NCC(=O)N[C@@H](CS)C(=O)N[C@@H](CO)C(=O)N[C@@H](CCCNC(=N)N)C(=O)N[C@@H](CCCNC(=N)N)C(=O)N[C@@H](CO)C(=O)N[C@@H](CCCCN)C(=O)N[C@@H](CO)C(=O)N[C@@H](CCCCN)C(=O)N[C@@H](CS)C(=O)O [sample 2, KKRTLRKNDRKKR GG CSRRSKSKC] (H-KKRTLRKNDRKKRGGCSRRSKSKC-OH; N-terminus and C-terminus assumed)	at least 30%
CC(C)C[C@H](NC(=O)[C@@H](NC(=O)[C@H](CCCNC(=N)N)NC(=O)[C@H](CCCCN)NC(=O)[C@@H](N)CCCCN)[C@@H](C)O)C(=O)N[C@@H](CCCNC(=N)N)C(=O)N[C@@H](CCCCN)C(=O)N[C@@H](CC(N)=O)C(=O)N[C@@H](CC(=O)O)C(=O)N[C@@H](CCCNC(=N)N)C(=O)N[C@@H](CCCCN)C(=O)N[C@@H](CCCCN)C(=O)N[C@@H](CCCNC(=N)N)C(=O)NCC(=O)NCC(=O)N[C@@H](CS)C(=O)N1CCC[C@H]1C(=O)N[C@@H](CC(=O)O)C(=O)NCC(=O)N[C@@H](C)C(=O)N[C@@H](CCCCN)C(=O)N[C@@H](C)C(=O)N[C@@H](CCCNC(=N)N)C(=O)N[C@@H](CS)C(=O)O [sample 1, KKRTLRKNDRKKR GG CPDGAKARC] (H-KKRTLRKNDRKKRGGCPDGAKARC-OH; N-terminus and C-terminus assumed)	at least 30%
